Measurements published in patent publication US20260256792A1, “TREATMENT OF CHRONIC SPONTANEOUS URTICARIA BY ADMINISTERING (R)-2-[3-[4-AMINO-3-(2-FLUORO-4-PHENOXY-PHENYL)PYRAZOLO[3,4-D]PYRIMIDIN-1-YL]PIPERIDINE-1-CARBONYL]-4-METHYL-4-[4-(OXETAN-3-YL)PIPERAZIN-1-YL]PENT-2-ENENITRILE” (priority 2023, published 2026).
Further values from the same series stand in other lists.

Tested on: moderate-to-severe chronic spontaneous urticaria (CSU)
Assay: Phase 2 CSU study: itch severity score over 7 days (ISS7)
Format: in vivo, human
Conditions: Omalizumab-Naïve
Excerpt: The study comprises a 12 week, randomized, double-blind, placebo-controlled, multi-center, dose-ranging efficacy and safety phase, followed by a 40 week open label extension (OLE) phase (see FIG. 1). The study consists of three phases and an optional OLE phase. […] Clinically, CSU is characterized by the spontaneous and recurrent appearance of pruritic hives. The proposed primary endpoints were the UAS7 at Week 12 in EU and EU reference countries and the ISS7 in the US. Regardless of where a participant was from, all assessments were the same. The UAS7 score is a composite score containing both the HSS7 and the ISS7. This allowed a global assessment of the two key components of urticaria: hives and itch. […] The UAS is a validated PRO measure. […] The daily UAS scores range from 0 to 6 point/day. […] Patients were to complete the UAS using the e-diary. […] The following secondary endpoints were to be analyzed using the same approach as for the primary endpoint: • Change from baseline in UAS7 at Week 4 • Change from baseline in UAS7 at Week 12 (for US and US reference countries) • Change from baseline in ISS7 at Week 12 (except US and US reference countries) • Change from baseline in HSS7 at Week 12

[1] = outlier removed, 400 mg QPM, Week 6
[2] = outlier removed, 400 mg QPM, Week 7
[3] = outlier removed, 400 mg QPM, Week 8
[4] = outlier removed, 400 mg QPM, Week 9
[5] = outlier removed, 400 mg QPM, Week 10
[6] = outlier removed, 400 mg QPM, Week 11
[7] = outlier removed, 400 mg QPM, Week 12
[8] = outlier removed, 400 mg TID, Week 1
[9] = outlier removed, 400 mg TID, Week 2
[10] = outlier removed, 400 mg TID, Week 3
[11] = outlier removed, 400 mg TID, Week 4
[12] = outlier removed, 400 mg TID, Week 5
[13] = outlier removed, 400 mg TID, Week 6
[14] = outlier removed, 400 mg TID, Week 7
[15] = outlier removed, 400 mg TID, Week 8
[16] = outlier removed, 400 mg TID, Week 9
[17] = outlier removed, 400 mg TID, Week 10
[18] = outlier removed, 400 mg TID, Week 11
[19] = outlier removed, 400 mg TID, Week 12

CC(C)(C=C(C#N)C(=O)N1CCC[C@@H](n2nc(-c3ccc(Oc4ccccc4)cc3F)c3c(N)ncnc32)C1)N1CCN(C2COC2)CC1 [rilzabrutinib, (R)-2-[3-[4-amino-3-(2-fluoro-4-phenoxy-phenyl)pyrazolo[3,4-d]pyrimidin-1-yl]piperidine-1-carbonyl]-4-methyl-4-[4-(oxetan-3-yl)piperazin-1-yl]pent-2-enenitrile]
ISS7 Change difference for rilzabrutinib vs. placebo LS Mean (95% CI) [1]: −1.29 (−3.88, 1.30) | ISS7 Change from baseline LS Mean (SE) [1]: −6.13 (0.94) | ISS7 % Change difference for rilzabrutinib vs. placebo LS Mean (95% CI) [2]: −8.35 (−24.56, 7.86) % | ISS7 % Change from baseline LS Mean (SE) [2]: −38.17 (5.94) % | ISS7 Change difference for rilzabrutinib vs. placebo LS Mean (95% CI) [2]: −1.09 (−3.58, 1.41) | ISS7 Change from baseline LS Mean (SE) [2]: −6.23 (0.91) | ISS7 % Change difference for rilzabrutinib vs. placebo LS Mean (95% CI) [3]: −5.99 (−22.96, 10.98) % | ISS7 % Change from baseline LS Mean (SE) [3]: −38.14 (6.20) % | ISS7 Change difference for rilzabrutinib vs. placebo LS Mean (95% CI) [3]: −0.63 (−3.22, 1.96) | ISS7 Change from baseline LS Mean (SE) [3]: −6.08 (0.95) | ISS7 % Change difference for rilzabrutinib vs. placebo LS Mean (95% CI) [4]: −7.36 (−24.20, 9.48) % | ISS7 % Change from baseline LS Mean (SE) [4]: −37.28 (6.13) % | ISS7 Change difference for rilzabrutinib vs. placebo LS Mean (95% CI) [4]: −1.04 (−3.67, 1.58) | ISS7 Change from baseline LS Mean (SE) [4]: −6.16 (0.95) | ISS7 % Change difference for rilzabrutinib vs. placebo LS Mean (95% CI) [5]: −3.99 (−21.57, 13.58) % | ISS7 % Change from baseline LS Mean (SE) [5]: −39.06 (6.40) % | ISS7 Change difference for rilzabrutinib vs. placebo LS Mean (95% CI) [5]: −0.75 (−3.45, 1.96) | ISS7 Change from baseline LS Mean (SE) [5]: −6.41 (0.98) | ISS7 % Change difference for rilzabrutinib vs. placebo LS Mean (95% CI) [6]: −5.03 (−22.79, 12.72) % | ISS7 % Change from baseline LS Mean (SE) [6]: −36.51 (6.46) % | ISS7 Change difference for rilzabrutinib vs. placebo LS Mean (95% CI) [6]: −0.51 (−3.21, 2.18) | ISS7 Change from baseline LS Mean (SE) [6]: −5.84 (0.98) | ISS7 % Change difference for rilzabrutinib vs. placebo LS Mean (95% CI) [7]: 0.29 (−17.53, 18.11) % | ISS7 % Change from baseline LS Mean (SE) [7]: −34.35 (6.52) % | ISS7 Change difference for rilzabrutinib vs. placebo LS Mean (95% CI) [7]: 0.42 (−2.33, 3.18) | ISS7 Change from baseline LS Mean (SE) [7]: −5.29 (1.01) | ISS7 % Change difference for rilzabrutinib vs. placebo LS Mean (95% CI) [8]: −27.54 (−46.26, −8.82) % | ISS7 % Change from baseline LS Mean (SE) [8]: −37.73 (5.76) % | ISS7 Change difference for rilzabrutinib vs. placebo LS Mean (95% CI) [8]: −4.25 (−6.97, −1.53) | ISS7 Change from baseline LS Mean (SE) [8]: −6.21 (0.84) | ISS7 % Change difference for rilzabrutinib vs. placebo LS Mean (95% CI) [9]: −27.63 (−42.59, −12.68) % | ISS7 % Change from baseline LS Mean (SE) [9]: −46.27 (5.57) % | ISS7 Change difference for rilzabrutinib vs. placebo LS Mean (95% CI) [9]: −4.29 (−6.52, −2.06) | ISS7 Change from baseline LS Mean (SE) [9]: −7.53 (0.83) | ISS7 % Change difference for rilzabrutinib vs. placebo LS Mean (95% CI) [10]: −27.10 (−42.26, −11.94) % | ISS7 % Change from baseline LS Mean (SE) [10]: −47.94 (5.64) % | ISS7 Change difference for rilzabrutinib vs. placebo LS Mean (95% CI) [10]: −4.12 (−6.42, −1.83) | ISS7 Change from baseline LS Mean (SE) [10]: −7.77 (0.85) | ISS7 % Change difference for rilzabrutinib vs. placebo LS Mean (95% CI) [11]: −24.30 (−40.44, −8.16) % | ISS7 % Change from baseline LS Mean (SE) [11]: −47.66 (6.02) % | ISS7 Change from baseline LS Mean (SE) [11]: −7.78 (0.91) | ISS7 % Change difference for rilzabrutinib vs. placebo LS Mean (95% CI) [12]: −19.54 (−35.11, −3.96) % | ISS7 % Change from baseline LS Mean (SE) [12]: −53.59 (5.78) % | ISS7 Change difference for rilzabrutinib vs. placebo LS Mean (95% CI) [12]: −3.21 (−5.65, −0.77) | ISS7 Change from baseline LS Mean (SE) [12]: −8.85 (0.91) | ISS7 % Change difference for rilzabrutinib vs. placebo LS Mean (95% CI) [13]: −23.97 (−40.79, −7.15) % | ISS7 % Change from baseline LS Mean (SE) [13]: −52.19 (6.28) % | ISS7 Change from baseline LS Mean (SE) [13]: −8.61 (0.98) | ISS7 % Change difference for rilzabrutinib vs. placebo LS Mean (95% CI) [14]: −24.40 (−40.95, −7.85) % | ISS7 % Change from baseline LS Mean (SE) [14]: −54.22 (6.16) % | ISS7 Change difference for rilzabrutinib vs. placebo LS Mean (95% CI) [14]: −3.69 (−6.24, −1.13) | ISS7 Change from baseline LS Mean (SE) [14]: −8.83 (0.95) | ISS7 % Change difference for rilzabrutinib vs. placebo LS Mean (95% CI) [15]: −19.50 (−37.05, −1.95) % | ISS7 % Change from baseline LS Mean (SE) [15]: −51.64 (6.49) % | ISS7 Change difference for rilzabrutinib vs. placebo LS Mean (95% CI) [15]: −2.89 (−5.57, −0.21) | ISS7 Change from baseline LS Mean (SE) [15]: −8.34 (0.99) | ISS7 % Change difference for rilzabrutinib vs. placebo LS Mean (95% CI) [16]: −23.53 (−40.91, −6.16) % | ISS7 % Change from baseline LS Mean (SE) [16]: −53.45 (6.52) % | ISS7 Change difference for rilzabrutinib vs. placebo LS Mean (95% CI) [16]: −3.67 (−6.38, −0.96) | ISS7 Change from baseline LS Mean (SE) [16]: −8.79 (1.02) | ISS7 % Change difference for rilzabrutinib vs. placebo LS Mean (95% CI) [17]: −19.20 (−37.21, −1.20) % | ISS7 % Change from baseline LS Mean (SE) [17]: −54.26 (6.73) % | ISS7 Change difference for rilzabrutinib vs. placebo LS Mean (95% CI) [17]: −3.21 (−5.98, −0.44) | ISS7 Change from baseline LS Mean (SE) [17]: −8.88 (1.04) | ISS7 % Change difference for rilzabrutinib vs. placebo LS Mean (95% CI) [18]: −22.12 (−39.99, −4.26) % | ISS7 % Change from baseline LS Mean (SE) [18]: −53.60 (6.61) % | ISS7 Change difference for rilzabrutinib vs. placebo LS Mean (95% CI) [18]: −3.49 (−6.21, −0.78) | ISS7 Change from baseline LS Mean (SE) [18]: −8.82 (1.00) | ISS7 % Change difference for rilzabrutinib vs. placebo LS Mean (95% CI) [19]: −23.57 (−41.96, −5.17) % | ISS7 % Change from baseline LS Mean (SE) [19]: −58.20 (6.85) % | ISS7 Change difference for rilzabrutinib vs. placebo LS Mean (95% CI) [19]: −3.86 (−6.71, −1.02) | ISS7 Change from baseline LS Mean (SE) [19]: −9.57 (1.06) | ISS7 % Change difference for rilzabrutinib vs. placebo LS Mean (95% CI) (400 mg BID, Week 5): −8.04 (−23.43, 7.34) % | ISS7 % Change from baseline LS Mean (SE) (400 mg BID, Week 5): −42.17 (5.73) % | ISS7 Change difference for rilzabrutinib vs. placebo LS Mean (95% CI) (400 mg BID, Week 5): −0.92 | ISS7 Change from baseline LS Mean (SE) (400 mg BID, Week 5): −6.55 (0.91) | ISS7 % Change difference for rilzabrutinib vs. placebo LS Mean (95% CI) (400 mg BID, Week 6): −13.63 (−30.25, 3.00) % | ISS7 % Change from baseline LS Mean (SE) (400 mg BID, Week 6): −41.28 (6.23) %
